Measured values published in the supplement of paper PMC7125110.
± gives the standard error. Many of these values have a large error.

B1: glmS ribozyme (parent)
chain: AUAAAAGCGCCAGAACUACAGAAAUGUAGUUGACGAGGAGGAGGUUUAUCGAAUUUUCGGCGGAUGCCUCCAAA

Variants of: B1
Assay: self-cleavage kobs at 640 uM GlcN6P; higher = faster cleavage; RNA array
Conditions: with glucosamine-6-phosphate
How it was run: (§1)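 Barcoded glmS ribozyme variants on sequenced MiSeq chips were transcribed in situ by E. coli RNA polymerase and tracked through a hybridised Cy3 probe at 37 °C. Glucosamine-6-phosphate (40 μM to 10 mM) in HEPES/KCl/Mg(OAc)2 buffer was flowed in, and tiles were imaged over ~14 h. Signals were normalised to baseline and to non-cleaving reference variants; per-tile medians were fit to one- or two-exponential decays to give kobs. kcat and KM came from weighted Michaelis–Menten fits across concentrations.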

Row | Variant | self-cleavage kobs at 640 uM GlcN6P [s⁻¹]
1 | C16A C50G U55C | 0.000225 ± 0.00011
2 | G40A A42U | 2.32e-05 ± 1.6e-05
3 | A36U U69C | 2.92e-05 ± 2.8e-05
4 | A36C U54G C70A | 9.47e-05 ± 5.8e-05
5 | U30C U56C | < 1e-05
6 | U30G G41C | 2.36e-05 ± 1.3e-05
7 | C50A C61A C68A | 4.71e-05 ± 3.4e-05
8 | U31G U49G C67G | 3.88e-05 ± 2.4e-05
9 | G32U A39U C67G | 2.03e-05 ± 1.4e-05
10 | U65G C68A | 3.33e-05 ± 2e-05
11 | C16U G59A | 1.72e-05 ± 1.3e-05
12 | U47C C58G | 1.44e-05 ± 1.4e-05
13 | G37C A64G | 3.1e-05 ± 1.6e-05
14 | C34A A36G U69G C70G | 4.12e-05 ± 2.2e-05
15 | G37C A53U C70U | 2.65e-05 ± 2.7e-05
16 | A64U U69G | 4.27e-05 ± 2.3e-05
17 | C50U G66U C70G | 5.84e-05 ± 3.3e-05
18 | U30C U56G C68G U69A | 3.33e-05 ± 2.9e-05
19 | A15G A33C U45A | 3.15e-05 ± 1.7e-05

Look-ups from the list.
U30C U56C | self-cleavage kobs at 640 uM GlcN6P [s⁻¹]: < 1e-05
A36U U69C | self-cleavage kobs at 640 uM GlcN6P [s⁻¹]: 2.92e-05 ± 2.8e-05
A36C U54G C70A | self-cleavage kobs at 640 uM GlcN6P [s⁻¹]: 9.47e-05 ± 5.8e-05
G37C A53U C70U | self-cleavage kobs at 640 uM GlcN6P [s⁻¹]: 2.65e-05 ± 2.7e-05
U31G U49G C67G | self-cleavage kobs at 640 uM GlcN6P [s⁻¹]: 3.88e-05 ± 2.4e-05

Further records

Row | Variant | self-cleavage kobs at 640 uM GlcN6P [s⁻¹]
20 | C16A C58U C70A | 4.98e-05 ± 3e-05
21 | C50G U54C | 3.43e-05 ± 2.6e-05
22 | G63A U69A | 2.87e-05 ± 2.5e-05
23 | U31C A52G C67U C71A | 4.9e-05 ± 3.3e-05
24 | G44U U56A | 1.9e-05 ± 9.8e-06
25 | A53G G63C C70A | 2.86e-05 ± 2.4e-05
26 | A15U G35U U65A C67A | 4.41e-05 ± 2.2e-05
27 | A33U U55A | 1.35e-05 ± 7e-06
28 | A52G U57G C58U | 3.67e-05 ± 2.3e-05
29 | U47G A48U U65G | 2.77e-05 ± 1.6e-05
30 | G59C C67U | 0.00252 ± 0.0018
31 | U31C C34G G35U C68G | 0.000664 ± 0.00033
32 | G44C A53U | 2.75e-05 ± 1.5e-05
33 | U31G G59A C70G | 3.54e-05 ± 1.9e-05
34 | U65C C71G | 2.09e-05 ± 1.5e-05
35 | A48U U69A | 3.25e-05 ± 1.9e-05
36 | C16A C50A C70U | 5.64e-05 ± 2.9e-05
37 | C16G C70A C71U | 4.48e-05 ± 3.2e-05
38 | C50A C67G | 0.000223 ± 0.00013

Row | Variant | self-cleavage kobs at 640 uM GlcN6P [s⁻¹]
39 | U45G C68A | 0.000389 ± 0.00038
40 | U45G C58A G66U | 2.81e-05 ± 2.4e-05
41 | C58U C71U | 2.03e-05 ± 1.3e-05
42 | C50U U54G | 1.84e-05 ± 1.8e-05
43 | C16G C50U C68U C71A | 3.77e-05 ± 2.5e-05
44 | U30G A48U | 2.45e-05 ± 1.3e-05
45 | U31A G62A U65C U69G | 3.17e-05 ± 2.6e-05
46 | C50U C61A C68U | 2.58e-05 ± 2.4e-05
47 | U30C A52G | 1.99e-05 ± 2e-05
48 | G29C C67A C68G | 6.64e-05 ± 3.6e-05
49 | G32U C58G C68A C70U | 5.4e-05 ± 2.9e-05
50 | U31A G38U C67A | 2.72e-05 ± 2.1e-05
51 | U30G G66C | 2.63e-05 ± 1.8e-05
52 | C68A C71G | 0.00052 ± 0.00034
53 | C16U C50G G60U | 2.96e-05 ± 2.9e-05
54 | A33G C67G C70A | 3.54e-05 ± 2.9e-05
55 | G37C C50U G51C C61U U69G | 2.5e-05 ± 2.4e-05
56 | C50A C68A | 3.4e-05 ± 2.2e-05
57 | C50G C58A G66A | 6.61e-05 ± 3.5e-05

Variants of: B1
Assay: self-cleavage kobs at 2500 uM GlcN6P; higher = faster cleavage; RNA array
Conditions: with glucosamine-6-phosphate
How it was run: as §1

Row | Variant | self-cleavage kobs at 2500 uM GlcN6P [s⁻¹]
58 | C16A C50G U55C | 9e-05 ± 5.7e-05
59 | A15G C58A C68G | 4.01e-05 ± 2e-05
60 | C50A C61A C68A | 3.07e-05 ± 2.4e-05
61 | U31G U49G C67G | 2.46e-05 ± 1.8e-05
62 | C16U G37C G59U | 5.45e-05 ± 3.8e-05
63 | C34A A36G U69G C70G | 3.43e-05 ± 1.7e-05
64 | C50U G66U C70G | 5.78e-05 ± 2.9e-05
65 | G63A U69A | 4.39e-05 ± 2.7e-05
66 | A15U G35U U65A C67A | 2.07e-05 ± 1.7e-05
67 | C16A C50A C70U | 3.96e-05 ± 2.6e-05
68 | C16G C70A C71U | 2.73e-05 ± 2.4e-05
69 | U45G C58A G66U | 2.37e-05 ± 2.2e-05
70 | C16G C50U C68U C71A | 3.45e-05 ± 3.1e-05

Variants of: B1
Assay: self-cleavage kobs at 160 uM GlcN6P; higher = faster cleavage; RNA array
Conditions: with glucosamine-6-phosphate
How it was run: as §1

Row | Variant | self-cleavage kobs at 160 uM GlcN6P [s⁻¹]
71 | G13A U30C | 2.77e-05 ± 2.7e-05
72 | A15G C58A C68G | 7.69e-05 ± 4.1e-05
73 | C16U G37C G59U | 2.94e-05 ± 2.7e-05
74 | C16U G41A C71A | 2.37e-05 ± 1.9e-05
75 | G21A G44U | 2.8e-05 ± 1.6e-05
76 | C16G U69A | 1.87e-05 ± 1.7e-05
77 | C34A A36G U69G C70G | 3.34e-05 ± 1.8e-05
78 | G13U U31A A36G G38A C50G U56C | 2.6e-05 ± 2.3e-05
79 | C10A G13A C50A C58U C71G | 0.00033 ± 0.00017
80 | C16A C70U C71A | 3.14e-05 ± 2.2e-05
81 | A6G U65G | 1.38e-05 ± 1.3e-05
82 | A6U C50A U65A U69C | 2.87e-05 ± 2e-05
83 | A53G G63C C70A | 3.33e-05 ± 2.8e-05
84 | A15U G35U U65A C67A | 4.13e-05 ± 2.3e-05
85 | G13C A15G U45A | 2.11e-05 ± 1.9e-05
86 | A48U U69A | 4.15e-05 ± 2.6e-05
87 | G13C | < 1e-05
88 | C50A C67G | 2.04e-05 ± 1.2e-05
89 | C10U A36U C70A | 2.68e-05 ± 1.9e-05
90 | A12G A39C A42U | 2.82e-05 ± 2.6e-05
91 | C50U C61A C68U | 3.8e-05 ± 2.2e-05
92 | G13C G32U | 3.28e-05 ± 1.7e-05
93 | G13U U47G | 2.37e-05 ± 1.2e-05
94 | C11A A64G | 1.82e-05 ± 1.8e-05

Variants of: B1
Assay: self-cleavage kobs at 10000 uM GlcN6P; higher = faster cleavage; RNA array
Conditions: with glucosamine-6-phosphate
How it was run: as §1

Row | Variant | self-cleavage kobs at 10000 uM GlcN6P [s⁻¹]
95 | C50A C67G | 1.44e-05 ± 9.4e-06
96 | C50U U54G | 1.88e-05 ± 1.2e-05
97 | U30C A52G | 1.59e-05 ± 1.4e-05
